The source of these data is US20210147812A1, “Method of Preparing Cancer Spheroid and Method of Selecting Colorectal Cancer Patient” (Kyo Diagnostics K.K., priority 2017, published 2021).

Experiment [1] has as its system spheroid lines HC6T, HC9T, and HC20T. Kind of experiment: Drug sensitivity tests in spheroids (GEI). The format is cell-based. As to conditions: Homo sapiens, read-out: IC50 of spheroid growth. How it is done: (§1) Luciferase-expressing spheroids were cultured in 2-3 wells of a 12-well cell-culture plate (in 60-90 μl Matrigel). […] From the spheroid solution thus obtained, 300 μl was taken and the cells were resuspended in an equal volume of Matrigel. The spheroid cells in Matrigel were distributed to the wells of 96-well “white” cell-culture plates (Corning; 3 μl per well) on a plate heater at 37° C., and cultured overnight in 100 μl/well of the medium. Spheroids were rinsed with 100 μl/well of PBS, and incubated with 50 μl of 150 μg/ml luciferin in phenol red-free DMEM/F12 medium (Nacalai) for 10 min at room temperature (20-28° C.). Luminescence was scored using a conventional imaging device (Gel Doc XR+, BioRad). After this initial measurement, spheroids in each well were rinsed with 100 μl of PBS, and cultured in 100 μl of the medium. Luminescence was determined on day 1 and day 3. Effects of a drug was determined by obtaining GEI (growth effect index), which is the growth rate of a group treated with the drug compared to a control group (a solvent-treated group). Results were shown using means in three independent experiments each conducted in triplicate.
The spheroid lines shown in Table 3 were used in this example.

The test system of experiment [2] is six spheroid lines that did not depend on bFGF (HC1T, HC10T, HC11T, HC73T, HC5T and HC13T). Conditions: clinically relevant doses (0.01-1 μM). How it is done:
as §1

As a reminder, the IC50 is the concentration that inhibits the measured activity by half. For `COc1cc(OC)cc(N(CCNC(C)C)c2ccc3ncc(-c4cnn(C)c4)nc3c2)c1` [erdafitinib], in experiment [1], the IC50 is 2.2 to 3.1 nM. The growth inhibition entry in experiment [2] is recorded as “no growth inhibition”.
